PubChem BioAssay AID1259254 | NCATS | 2017

Assay: 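Finding genes that stop cells copying their DNA twice in one cycle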 (primary screen)
Cell system: human HCT116 colorectal cancer cells
Reagent: single siRNA against human genes
Duration: 3 days
Detection: 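Imaged Hoechst DNA stain sorts each cell into a cycle phase by DNA amount; per plate, G2 fraction set to 0% for non-targeting and 100% for GMNN siRNA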
Reading the numbers: G2 robust z-score and G2 cells, % of GMNN control: higher = more G2 cells, more excess DNA replication
Active means: 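Active siRNAs have a G2 robust z of 5 or more median absolute deviations over the median, which in these data means about 38% or higher of GMNN control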
Shown is an unselected part of about 59,000 reagents tested. About 1,550 of all reagents (2.6%) were called active. 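G2 share is only a proxy for re-replication; each gene was hit by three separate siRNAs, and active genes were retested.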 A number with no mark means an inactive call. The numbers tell different reagents against one gene apart. Not all columns of the deposit are shown. Reagent sequences are not shown. Not given: the amount of reagent.

KCNH8 (GeneID 131096) #1 scored G2 robust z-score 1.81; G2 cells, % of GMNN control 15.7. KCNH8 (GeneID 131096) #2 scored G2 robust z-score -0.665; G2 cells, % of GMNN control -1.71. Against KCNH8 (GeneID 131096) #3, the values are G2 robust z-score -0.75; G2 cells, % of GMNN control -2.31. After knock-down of VPS50 (GeneID 55610) #1, the record shows G2 robust z-score -0.437; G2 cells, % of GMNN control -0.109. Depletion of VPS50 (GeneID 55610) #2 resulted in: G2 robust z-score 0.39; G2 cells, % of GMNN control 5.71. After knock-down of VPS50 (GeneID 55610) #3, the record shows G2 robust z-score -1.12; G2 cells, % of GMNN control -4.9.

Silencing of PHF3 (GeneID 23469) #1 gave: G2 robust z-score 0.768; G2 cells, % of GMNN control 8.37. Silencing of PHF3 (GeneID 23469) #2 came out at: G2 robust z-score 0.228; G2 cells, % of GMNN control 4.57. For PHF3 (GeneID 23469) #3 the deposit lists G2 robust z-score -0.89; G2 cells, % of GMNN control -3.29. Knock-down of FMO2 (GeneID 2327) #1 came out at: G2 robust z-score -0.473; G2 cells, % of GMNN control -0.363. For FMO2 (GeneID 2327) #2 the deposit lists G2 robust z-score 4.36; G2 cells, % of GMNN control 33.7. FMO2 (GeneID 2327) #3 gave G2 robust z-score -0.543; G2 cells, % of GMNN control -0.85.

Against JAKMIP2 (GeneID 9832) #1, the entry reads G2 robust z-score 1.39; G2 cells, % of GMNN control 12.7. JAKMIP2 (GeneID 9832) #2 showed G2 robust z-score -0.284; G2 cells, % of GMNN control 0.971. JAKMIP2 (GeneID 9832) #3 scored G2 robust z-score 3.5; G2 cells, % of GMNN control 27.6. Silencing of KYAT3 (GeneID 56267) #1 gave: G2 robust z-score -0.0339; G2 cells, % of GMNN control 2.73. KYAT3 (GeneID 56267) #2 scored G2 robust z-score -0.16; G2 cells, % of GMNN control 1.84. KYAT3 (GeneID 56267) #3 gave G2 robust z-score -1.18; G2 cells, % of GMNN control -5.32.

For TOR4A (GeneID 54863) #1, the values are G2 robust z-score 4.7; G2 cells, % of GMNN control 36. With knock-down of TOR4A (GeneID 54863) #2 the results were G2 robust z-score 0.602; G2 cells, % of GMNN control 7.21. TOR4A (GeneID 54863) #3 showed G2 robust z-score 1.4; G2 cells, % of GMNN control 12.8. FAM133A (GeneID 286499) #1 showed G2 robust z-score -0.972; G2 cells, % of GMNN control -3.87. Knock-down of FAM133A (GeneID 286499) #2 gave: G2 robust z-score -1.02; G2 cells, % of GMNN control -4.24. FAM133A (GeneID 286499) #3 showed G2 robust z-score -0.59; G2 cells, % of GMNN control -1.19.

Silencing of PDCD2 (GeneID 5134) #1 gave: G2 robust z-score -1.02; G2 cells, % of GMNN control -4.24. Depletion of PDCD2 (GeneID 5134) #2 resulted in: G2 robust z-score 4.06; G2 cells, % of GMNN control 31.5. After knock-down of PDCD2 (GeneID 5134) #3, the screen gave G2 robust z-score -0.0279; G2 cells, % of GMNN control 2.77. For CNPY3 (GeneID 10695) #1 the deposit lists G2 robust z-score 0.532; G2 cells, % of GMNN control 6.71. Against CNPY3 (GeneID 10695) #2 the deposit lists G2 robust z-score 0.163; G2 cells, % of GMNN control 4.11. Against CNPY3 (GeneID 10695) #3, the values are G2 robust z-score -0.835; G2 cells, % of GMNN control -2.9.

A stretch of the results above:
JAKMIP2 (GeneID 9832) #1 — G2 robust z-score: 1.39; G2 cells, % of GMNN control: 12.7
JAKMIP2 (GeneID 9832) #2 — G2 robust z-score: -0.284; G2 cells, % of GMNN control: 0.971
JAKMIP2 (GeneID 9832) #3 — G2 robust z-score: 3.5; G2 cells, % of GMNN control: 27.6
KYAT3 (GeneID 56267) #1 — G2 robust z-score: -0.0339; G2 cells, % of GMNN control: 2.73
